PubChem BioAssay AID1159584 | Peter MacCallum Cancer Centre | 2016
Aim: 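Genes whose loss is lethal only together with E-cadherin loss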 (primary screen). Cells: human MCF10A breast epithelial cells, parental and CDH1-null. Reagent: siRNA against human genes. Detection: 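Cell viability by CellTiter-Glo ATP luminescence, each line scaled to the mean of mock wells across plates, then CDH1-null over parental ratio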. Reading the numbers: CDH1-null / parental viability ratio: higher = CDH1-null cells survive relatively better than parental.
Shown is a random part of about 18,000 deposited reagents. Not all columns of the deposit are shown. The record does not give: the amount of reagent, the time to read-out.

The opening 3 records as a preview:
CLPSL1 [SID152155450] | CDH1-null / parental viability ratio: 1.11
ADRB1 [SID152148434] | CDH1-null / parental viability ratio: 1.4
GPR18 [SID135621024] | CDH1-null / parental viability ratio: 0.79

Main list, from the start:
CLPSL1 [SID152155450] | CDH1-null / parental viability ratio: 1.11
ADRB1 [SID152148434] | CDH1-null / parental viability ratio: 1.4
GPR18 [SID135621024] | CDH1-null / parental viability ratio: 0.79
PRSS55 [SID135624652] | CDH1-null / parental viability ratio: 1.35
KCNH6 [SID134311654] | CDH1-null / parental viability ratio: 1.39
RALGAPA2 [SID152146958] | CDH1-null / parental viability ratio: 1.02
UIMC1 [SID135621289] | CDH1-null / parental viability ratio: 0.58
KRCC1 [SID134324061] | CDH1-null / parental viability ratio: 0.91
CHFR [SID134312141] | CDH1-null / parental viability ratio: 0.84
AMPH [SID134315896] | CDH1-null / parental viability ratio: 1.02
ZNF415 [SID134312143] | CDH1-null / parental viability ratio: 0.65
CLLU1-AS1 [SID135625410] | CDH1-null / parental viability ratio: 0.66
SNX4 [SID134315851] | CDH1-null / parental viability ratio: 0.86
LOXL1 [SID135620858] | CDH1-null / parental viability ratio: 1.07
CAVIN2 [SID152155121] | CDH1-null / parental viability ratio: 0.8
OR6M1 [SID134329909] | CDH1-null / parental viability ratio: 1.29
CYP2J2 [SID135621525] | CDH1-null / parental viability ratio: 1.12
CPSF4 [SID135622292] | CDH1-null / parental viability ratio: 1.16
THAP3 [SID135625034] | CDH1-null / parental viability ratio: 1.26
PRR15 [SID134321945] | CDH1-null / parental viability ratio: 1
TAS2R45 [SID134321715] | CDH1-null / parental viability ratio: 0.74
PAH [SID134313742] | CDH1-null / parental viability ratio: 0.85
MAFB [SID134313855] | CDH1-null / parental viability ratio: 1.2
ENO3 [SID152149477] | CDH1-null / parental viability ratio: 0.72
RCN3 [SID152147882] | CDH1-null / parental viability ratio: 1.25
FUS [SID152147771] | CDH1-null / parental viability ratio: 0.79
TMED9 [SID152156269] | CDH1-null / parental viability ratio: 1.15
MCM9 [SID135623361] | CDH1-null / parental viability ratio: 1
FGR [SID135620620] | CDH1-null / parental viability ratio: 0.76
CD302 [SID134322741] | CDH1-null / parental viability ratio: 1.06
SLC43A3 [SID135622614] | CDH1-null / parental viability ratio: 1.23
KIF2A [SID135620917] | CDH1-null / parental viability ratio: 0.88
MYH10 [SID134325581] | CDH1-null / parental viability ratio: 1.07
STRN [SID135623776] | CDH1-null / parental viability ratio: 1.45
TRIM40 [SID152155285] | CDH1-null / parental viability ratio: 0.97
SCOC [SID134319002] | CDH1-null / parental viability ratio: 0.72
OR52W1 [SID152149212] | CDH1-null / parental viability ratio: 0.94
PSMA3 [SID134316076] | CDH1-null / parental viability ratio: 1.46
CLDN5 [SID134315750] | CDH1-null / parental viability ratio: 0.81
OR1J1 [SID152148258] | CDH1-null / parental viability ratio: 1.25
CNMD [SID152155068] | CDH1-null / parental viability ratio: 1.45
VAX1 [SID135625018] | CDH1-null / parental viability ratio: 0.87
PIP4K2A [SID135621253] | CDH1-null / parental viability ratio: 1.16
PRTN3 [SID135621122] | CDH1-null / parental viability ratio: 0.9
RASGRP1 [SID135621678] | CDH1-null / parental viability ratio: 0.99
